These are yes or no findings as the source states them, for the method shown. In cells and extracts the contact can be indirect. Some results given as binding are weak or reduced against the parent protein; the word gives no strength. For some assays here: Sequences can lack the tags named with a protein.
How the values were obtained:
GFP-WT-ATG4B = biological target: T1, GFP-WT-ATG4B (UniProt Q9Y4P1); assay: co-IP; GFP-tagged ATG4B proteins precipitated with GFP-Trap beads from cell lysates in NP-40 buffer (50 mM Tris-HCl pH 7.4, 150 mM NaCl, 1% NP-40, 1 mM EDTA), overnight at 4 °C; blot for PRMT1; GFP-WT-ATG4B cells with or without starvation for 4 h
T1 sequence: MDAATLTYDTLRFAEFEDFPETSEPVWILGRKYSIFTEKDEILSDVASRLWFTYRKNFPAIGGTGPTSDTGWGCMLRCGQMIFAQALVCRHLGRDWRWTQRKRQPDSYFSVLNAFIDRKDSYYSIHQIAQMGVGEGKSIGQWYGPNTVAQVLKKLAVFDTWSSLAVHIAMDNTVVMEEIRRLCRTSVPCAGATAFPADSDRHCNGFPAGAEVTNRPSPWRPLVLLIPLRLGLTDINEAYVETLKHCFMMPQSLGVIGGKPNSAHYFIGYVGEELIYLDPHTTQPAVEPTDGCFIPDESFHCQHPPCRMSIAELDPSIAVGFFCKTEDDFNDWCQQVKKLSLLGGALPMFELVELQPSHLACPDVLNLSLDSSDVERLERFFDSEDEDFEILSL

The chains behind the UniProt entries cited, without tags or fusion partners.
UniProt Q99873: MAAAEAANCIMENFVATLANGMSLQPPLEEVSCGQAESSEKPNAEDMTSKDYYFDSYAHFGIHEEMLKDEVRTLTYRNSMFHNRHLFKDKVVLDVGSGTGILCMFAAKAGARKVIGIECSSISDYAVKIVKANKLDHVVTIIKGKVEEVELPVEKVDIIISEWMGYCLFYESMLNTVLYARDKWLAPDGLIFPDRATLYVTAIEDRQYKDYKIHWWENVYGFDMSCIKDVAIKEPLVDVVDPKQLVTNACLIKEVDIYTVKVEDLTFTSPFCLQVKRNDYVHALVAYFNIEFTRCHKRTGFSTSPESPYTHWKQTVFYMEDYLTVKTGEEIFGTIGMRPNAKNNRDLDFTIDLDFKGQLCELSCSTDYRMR

GST-PRMT1-GFP = GST-PRMT1-GFP (UniProt Q99873); assay: pull-down; in vitro GST pull-down; purified GST-PRMT1-GFP as bait, ATG4B from cell lysates; blot for ATG4B; only the target purified

Q: With “PRMT1 (endogenous) (from UniProt Q99873 1-371)” as the molecule, how does the binding (GFP-WT-ATG4B) read?
A: binds

B1: ATG4B from cell lysates (protein, UniProt Q9Y4P1 1-393)
chain: T1 sequence
Q: For B1, which binding (GST-PRMT1-GFP) is on record?
A: binds
